# PubChem BioAssay AID504793 | Drosophila RNAi Screening Center – 2011
# Assay: 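Genes required for cells to halt at G2/M after double-strand DNA breaks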 (primary screen)
# System: Drosophila S2R+ cells
# Reagents: long dsRNA against Drosophila genes, about 0.25 µg dsRNA per well
# Duration: 4 days of dsRNA, then 4 hours of drug before read-out
# Treatment: doxorubicin 0.5 µM for 4 hours to cause double-strand breaks, in cells also given a low, harmless dose of dsRNA against nbs to sensitise the assay
# Measured: 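Per-well count of mitotic cells stained for phospho-histone H3 after doxorubicin exposure, used as mitotic index; counts are raw and not normalised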
# Reading the numbers: mitotic cells: higher = more cells in mitosis, weaker G2 arrest
# Hit rule: 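Genes are called active only when high mitotic counts were reproduced with independent dsRNAs and mitosis was checked for delay without damage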
# Calls: active = confirmed in follow-up tests; inactive = not confirmed
# The deposit covers about 23,000 reagents; shown is an unselected part of those that have a named target and a result. Over the whole deposit, 62 (0.27%) got an active call. 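Calls come from follow-up tests whose scores are not deposited, so confirmed genes may have low counts here; counts are not normalised per plate.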 Raw values vary from plate to plate and are shown uncorrected. Entries without a mark were called inactive. Names joined by + are all predicted targets of the reagent.
predicted target,DRSC id,"mitotic cells, replicate 1","mitotic cells, replicate 2"
CG42709,DRSC10277,14,
CG42709,DRSC25693,5,
Snx6 (Sorting nexin 6),DRSC03081,3,
Snx6 (Sorting nexin 6),DRSC29702,6,
wupA (wings up A),DRSC20385,15,
wupA (wings up A),DRSC22547,7,
wupA (wings up A),DRSC29330,9,
Lamtor2 + CG30120,DRSC05726,5,
Lamtor2 + CG30120,DRSC06922,8,
Marc (Mitochondrial amidoxime reducing component),DRSC06614,14,
CG32448,DRSC22657,5,
Fie (Fire exit),DRSC08158,11,
slx1 (nuclease slx1),DRSC12290,4,
insb (insensible),DRSC06995,5,
insb (insensible),DRSC24404,7,
Patronin,DRSC06756,6,
Patronin,DRSC06757,5,
Patronin,DRSC06994,11,
fz4 (frizzled 4),DRSC18780,9,
NELF-B,DRSC17734,12,
NELF-B,DRSC26242,9,
CG7271,DRSC22561,12,
Kaz-m1 (Kazal-type protease inhibitor m1),DRSC16990,10,
CG10887,DRSC14277,14,
CG10887,DRSC27820,8,
aqrs (aquarius),DRSC14724,8,
sordd2 + sordd1,DRSC20136,8,
sordd2 + sordd1,DRSC28444,3,
Phs (Phaser),DRSC10827,4,
Phs (Phaser),DRSC29714,7,
CG12486 (retired record),DRSC09888,4,
CG12486 (retired record),DRSC29802,1,
FASN2 (Fatty acid synthase 2),DRSC00167,4,
FASN2 (Fatty acid synthase 2),DRSC00610,5,
ND-51 (NADH dehydrogenase (ubiquinone) 51 kDa subunit),DRSC03145,5,
beat-IIb (beaten path IIb),DRSC13219,7,
beat-IIb (beaten path IIb),DRSC14816,10,
beat-IIb (beaten path IIb),DRSC15546,5,
CG6236,DRSC15999,5,
CG9877,DRSC04587,8,
CG9877,DRSC25386,5,
trr (trithorax-related),DRSC23290,14,
trr (trithorax-related),DRSC28776,9,
usp (ultraspiracle),DRSC18847,9,
usp (ultraspiracle),DRSC24447,6,
park (parkin),DRSC11618,4,
salr (spalt-related),DRSC03607,5,
Aatf (Apoptosis antagonizing transcription factor),DRSC02131,10,
Aatf (Apoptosis antagonizing transcription factor),DRSC29405,5,
Fur2 (Furin 2),DRSC19817,5,
sesB (stress-sensitive B),DRSC20371,8,
sesB (stress-sensitive B),DRSC29874,17,
CG33331 + CG33332,DRSC22928,14,
CG33331 + CG33332,DRSC29492,4,
GlyT (Glycine transporter),DRSC04512,3,
GlyT (Glycine transporter),DRSC26130,8,
CG3708,DRSC18646,19,
ps (pasilla),DRSC15149,7,
ps (pasilla),DRSC16388,12,
ps (pasilla),DRSC22989,9,
ps (pasilla),DRSC29315,10,
ps (pasilla),DRSC29574,14,
CG18324,DRSC06721,8,
CG18324,DRSC26600,8,
CG2150,DRSC23444,3,
CG15741,DRSC19707,14,
CG15741,DRSC24220,6,
nvy (nervy),DRSC04705,3,13
Rpi (Ribose-5-phosphate isomerase),DRSC04583,6,
CG6607,DRSC16073,14,
Parp16 (Poly(ADP-ribose) polymerase 16),DRSC06597,19,
Parp16 (Poly(ADP-ribose) polymerase 16),DRSC27048,7,
CG13369,DRSC18481,13,
CG13369,DRSC29455,3,
CG6425,DRSC16038,7,

Part of the list above, showing only “mitotic cells, replicate 1”.
Lamtor2 + CG30120 [DRSC06922]	8
Marc (Mitochondrial amidoxime reducing component) [DRSC06614]	14
CG32448 [DRSC22657]	5
Fie (Fire exit) [DRSC08158]	11
slx1 (nuclease slx1) [DRSC12290]	4
insb (insensible) [DRSC06995]	5
insb (insensible) [DRSC24404]	7
Patronin [DRSC06756]	6
Patronin [DRSC06757]	5
Patronin [DRSC06994]	11
